Laboratory results: patent publication US20250283871A1, “COMPOSITIONS AND METHODS FOR MODULATING THE INTERACTION BETWEEN SS18-SSX FUSION ONCOPROTEIN AND NUCLEOSOMES” (Dana-Farber Cancer Institute, Inc., priority 2020, published 2025)

Test system: BAF complex subunits and histone proteins
Experiment: Mass spectrometry proteomics of purified HA-SS18 WT and HA-SS18-SSX1 complexes (Tables 5A-5E)
Parameters: species or system human
Conditions: HEK-293T; for Total (total peptides) / Unique (unique peptides): HA-SS18SSX1 purification, NE (soluble nuclear extract) fraction, peptides per identified protein
[1] = HA-SS18WT_NE_peptides: HA-SS18 WT complexes purified from nuclear extract (NE), label = protein identified (Gene Symbol)
[2] = HA-SS18WT_NE_peptides: proteins co-purified with HA-SS18 WT from nuclear extract (NE)

B1: MAN1B1 (protein, UniProt Q9UKM7 1-699, looked up)
Endoplasmic reticulum …: MAACEGRRSGALGSSQSDFLTPPVGGAPWAVATTVVMYPPPPPPPHRDFISVTLSFGENYDNSKSWRRRSCWRKWKQLSRLQRNMILFLLAFLLFCGLLFYINLADHWKALAFRLEEEQKMRPEIAGLKPANPPVLPAPQKADTDPENLPEISSQKTQRHIQRGPPHLQIRPPSQDLKDGTQEEATKRQEAPVDPRPEGDPQRTVISWRGAVIEPEQGTELPSRRAEVPTKPPLPPARTQGTPVHLNYRQKGVIDVFLHAWKGYRKFAWGHDELKPVSRSFSEWFGLGLTLIDALDTMWILGLRKEFEEARKWVSKKLHFEKDVDVNLFESTIRILGGLLSAYHLSGDSLFLRKAEDFGNRLMPAFRTPSKIPYSDVNIGTGVAHPPRWTSDSTVAEVTSIQLEFRELSRLTGDKKFQEAVEKVTQHIHGLSGKKDGLVPMFINTHSGLFTHLGVFTLGARADSYYEYLLKQWIQGGKQETQLLEDYVEAIEGVRTHLLRHSEPSKLTFVGELAHGRFSAKMDHLVCFLPGTLALGVYHGLPASHMELAQELMETCYQMNRQMETGLSPEIVHFNLYPQPGRRDVEVKPADRHNLLRPETVESLFYLYRVTGDRKYQDWGWEILQSFSRFTRVPSGGYSSINNVQDPQKPEPRDKMESFFLGETLKYLFLLFSDDPNLLSLDAYVFNTEAHPLPIWTPA
Total (total peptides): 5 | Unique (unique peptides): 5 | Total (peptides) [1]: 3 | Unique (peptides) [1]: 3

B2: TMEM165 (protein, UniProt Q9HC07 34-324, looked up)
Putative divalent …: GPDEDLSHRNKEPPAPAQQLQPQPVAVQGPEPARVEKIFTPAAPVHTNKEDPATQTNLGFIHAFVAAISVIIVSELGDKTFFIAAIMAMRYNRLTVLAGAMLALGLMTCLSVLFGYATTVIPRVYTYYVSTVLFAIFGIRMLREGLKMSPDEGQEELEEVQAELKKKDEEFQRTKLLNGPGDVETGTSITVPQKKWLHFISPIFVQALTLTFLAEWGDRSQLTTIVLAAREDPYGVAVGGTVGHCLCTGLAVIGGRMIAQKISVRTVTIIGGIVFLAFAFSALFISPDSGF
Total (total peptides): 5 | Unique (unique peptides): 5 | Total (peptides) [1]: 4 | Unique (peptides) [1]: 4

B3: IARS2 (protein, UniProt Q9NSE4 49-1012, looked up)
Isoleucine--tRNA ligase, …: SNHQPNSNSGRYRDTVLLPQTSFPMKLLGRQQPDTELEIQQKCGFSELYSWQRERKVKTEFCLHDGPPYANGDPHVGHALNKILKDIANRFHMMNGSKIHFVPGWDCHGLPIEIKVLSELGREAQNLSAMEIRKKARSFAKAAIEKQKSAFIRWGIMADWNNCYYTFDGKYEAKQLRTFYQMYDKGLVYRSYKPVFWSPSSRTALAEAELEYNPEHVSRSIYVKFPLLKPSPKLASLIDGSSPVSILVWTTQPWTIPANEAVCYMPESKYAVVKCSKSGDLYVLAADKVASVASTLETTFETISTLSGVDLENGTCSHPLIPDKASPLLPANHVTMAKGTGLVHTAPAHGMEDYGVASQHNLPMDCLVDEDGVFTDVAGPELQNKAVLEEGTDVVIKMLQTAKNLLKEEKLVHSYPYDWRTKKPVVIRASKQWFINITDIKTAAKELLKKVKFIPGSALNGMVEMMDRRPYWCISRQRVWGVPIPVFHHKTKDEYLINSQTTEHIVKLVEQHGSDIWWTLPPEQLLPKEVLSEVGGPDALEYVPGQDILDIWFDSGTSWSYVLPGPDQRADLYLEGKDQLGGWFQSSLLTSVAARKRAPYKTVIVHGFTLGEKGEKMSKSLGNVIHPDVVVNGGQDQSKEPPYGADVLRWWVADSNVFTEVAIGPSVLNAARDDISKLRNTLRFLLGNVADFNPETDSIPVNDMYVIDQYMLHLLQDLANKITELYKQYDFGKVVRLLRTFYTRELSNFYFSIIKDRLYCEKENDPKRRSCQTALVEILDVIVRSFAPILPHLAEEVFQHIPYIKEPKSVFRTGWISTSSIWKKPGLEEAVESACAMRDSFLGSIPGKNAAEYKVITVIEPGLLFEIIEMLQSEETSSTSQLNELMMASESTLLAQEPREMTADVIELKGKFLINLEGGDIREESSYKVIVMPTTKEKCPRCWKYTAESSDTLCPRCAEVVSGK
Total (total peptides): 5 | Unique (unique peptides): 5 | Total (peptides) [1]: 4 | Unique (peptides) [1]: 4

B4: IDH3A (protein, UniProt P50213 28-366, looked up)
Isocitrate dehydrogenase …: TGGVQTVTLIPGDGIGPEISAAVMKIFDAAKAPIQWEERNVTAIQGPGGKWMIPSEAKESMDKNKMGLKGPLKTPIAAGHPSMNLLLRKTFDLYANVRPCVSIEGYKTPYTDVNIVTIRENTEGEYSGIEHVIVDGVVQSIKLITEGASKRIAEFAFEYARNNHRSNVTAVHKANIMRMSDGLFLQKCREVAESCKDIKFNEMYLDTVCLNMVQDPSQFDVLVMPNLYGDILSDLCAGLIGGLGVTPSGNIGANGVAIFESVHGTAPDIAGKDMANPTALLLSAVMMLRHMGLFDHAARIEAACFATIKDGKSLTKDLGGNAKCSDFTEEICRRVKDLD
Total (total peptides): 6 | Unique (unique peptides): 5 | Total (peptides) [1]: 7 | Unique (peptides) [1]: 6

B5: CPT1A (protein, UniProt P50416 2-773, looked up)
Carnitine …: AEAHQAVAFQFTVTPDGIDLRLSHEALRQIYLSGLHSWKKKFIRFKNGIITGVYPASPSSWLIVVVGVMTTMYAKIDPSLGIIAKINRTLETANCMSSQTKNVVSGVLFGTGLWVALIVTMRYSLKVLLSYHGWMFTEHGKMSRATKIWMGMVKIFSGRKPMLYSFQTSLPRLPVPAVKDTVNRYLQSVRPLMKEEDFKRMTALAQDFAVGLGPRLQWYLKLKSWWATNYVSDWWEEYIYLRGRGPLMVNSNYYAMDLLYILPTHIQAARAGNAIHAILLYRRKLDREEIKPIRLLGSTIPLCSAQWERMFNTSRIPGEETDTIQHMRDSKHIVVYHRGRYFKVWLYHDGRLLKPREMEQQMQRILDNTSEPQPGEARLAALTAGDRVPWARCRQAYFGRGKNKQSLDAVEKAAFFVTLDETEEGYRSEDPDTSMDSYAKSLLHGRCYDRWFDKSFTFVVFKNGKMGLNAEHSWADAPIVAHLWEYVMSIDSLQLGYAEDGHCKGDINPNIPYPTRLQWDIPGECQEVIETSLNTANLLANDVDFHSFPFVAFGKGIIKKCRTSPDAFVQLALQLAHYKDMGKFCLTYEASMTRLFREGRTETVRSCTTESCDFVRAMVDPAQTVEQRLKLFKLASEKHQHMYRLAMTGSGIDRHLFCLYVVSKYLAVESPFLKEVLSEPWRLSTSQTPQQQVELFDLENNPEYVSSGGGFGPVADDGYGVSYILVGENLINFHISSKFSCPETDSHRFGRHLKEAMTDIITLFGLSSNSKK
Total (total peptides): 6 | Unique (unique peptides): 4 | Total (peptides) [1]: 6 | Unique (peptides) [1]: 6

B6: FAF2 (protein, UniProt Q96CS3 2-445, looked up)
FAS-associated factor 2: AAPEERDLTQEQTEKLLQFQDLTGIESMDQCRHTLEQHNWNIEAAVQDRLNEQEGVPSVFNPPPSRPLQVNTADHRIYSYVVSRPQPRGLLGWGYYLIMLPFRFTYYTILDIFRFALRFIRPDPRSRVTDPVGDIVSFMHSFEEKYGRAHPVFYQGTYSQALNDAKRELRFLLVYLHGDDHQDSDEFCRNTLCAPEVISLINTRMLFWACSTNKPEGYRVSQALRENTYPFLAMIMLKDRRMTVVGRLEGLIQPDDLINQLTFIMDANQTYLVSERLEREERNQTQVLRQQQDEAYLASLRADQEKERKKREERERKRRKEEEVQQQKLAEERRRQNLQEEKERKLECLPPEPSPDDPESVKIIFKLPNDSRVERRFHFSQSLTVIHDFLFSLKESPEKFQIEANFPRRVLPCIPSEEWPNPPTLQEAGLSHTEVLFVQDLTDE
Total (total peptides): 6 | Unique (unique peptides): 5 | Total (peptides) [1]: 5 | Unique (peptides) [1]: 4

B7: ALDH1L2 (protein)
chain: MLRRGSQALRRFSTGRVYFKNKLKLALIGQSLFGQEVYSHLRKEGHRVVGVFTVPDKDGKADPLALAAEKDGTPVFKLPKWRVKGKTIKEVAEAYRSVGAELNVLPFCTQFIPMDIIDSPKHGSIIYHPSILPRHRGASAINWTLIMGDKKAGFSVFWADDGLDTGPILLQRSCDVEPNDTVDALYNRFLFPEGIKAMVEAVQLIADGKAPRIPQPEEGATYEGIQKKENAEISWDQSAEVLHNWIRGHDKVPGAWTEINGQMVTFYGSTLLNSSVPPGEPLEIKGAKKPGLVTKNGLVLFGNDGKALTVRNLQFEDGKMIPASQYFSTGETSVVELTAEEVKVAETIKVIWAGILSNVPIIEDSTDFFKSGASSMDVARLVEEIRQKCGGLQLQNEDVYMATKFEGFIQKVVRKLRGEDQEVELVVDYISKEVNEIMVKMPYQCFINGQFTDADDGKTYDTINPTDGSTICKVSYASLADVDKAVAAAKDAFENGEWGRMNARERGRLMYRLADLLEENQEELATIEALDSGAVYTLALKTHIGMSVQTFRYFAGWCDKIQGSTIPINQARPNRNLTFTKKEPLGVCAIIIPWNYPLMMLAWKSAACLAAGNTLVLKPAQVTPLTALKFAELSVKAGFPKGVINIIPGSGGIAGQRLSEHPDIRKLGFTGSTPIGKQIMKSCAVSNLKKVSLELGGKSPLIIFNDCELDKAVRMGMGAVFFNKGENCIAAGRLFVEESIHDEFVTRVVEEIKKMKIGDPLDRSTDHGPQNHKAHLEKLLQYCETGVKEGATLVYGGRQVQRPGFFMEPTVFTDVEDYMYLAKEESFGPIMVISKFQNGDIDGVLQRANSTEYGLASGVFTRDINKAMYVSEKLEAGTVFINTYNKTDVAAPFGGVKQSGFGKDLGEEALNEYLKTKTVTLEY
Total (total peptides): 5 | Unique (unique peptides): 5 | Total (peptides) [1]: 6 | Unique (peptides) [1]: 6

B8: HARS2 (protein, UniProt P49590 34-506, looked up)
Histidine--tRNA ligase, …: QSQVAEAVLTSQLKAHQEKPNFIIKTPKGTRDLSPQHMVVREKILDLVISCFKRHGAKGMDTPAFELKETLTEKYGEDSGLMYDLKDQGGELLSLRYDLTVPFARYLAMNKVKKMKRYHVGKVWRRESPTIVQGRYREFCQCDFDIAGQFDPMIPDAECLKIMCEILSGLQLGDFLIKVNDRRIVDGMFAVCGVPESKFRAICSSIDKLDKMAWKDVRHEMVVKKGLAPEVADRIGDYVQCHGGVSLVEQMFQDPRLSQNKQALEGLGDLKLLFEYLTLFGIADKISFDLSLARGLDYYTGVIYEAVLLQTPTQAGEEPLNVGSVAAGGRYDGLVGMFDPKGHKVPCVGLSIGVERIFYIVEQRMKTKGEKVRTTETQVFVATPQKNFLQERLKLIAELWDSGIKAEMLYKNNPKLLTQLHYCESTGIPLVVIIGEQELKEGVIKIRSVASREEVAIKRENFVAEIQKRLSES
Total (total peptides): 6 | Unique (unique peptides): 5 | Total (peptides) [1]: 4 | Unique (peptides) [1]: 4

B9: BSG (protein, UniProt P35613 22-385, looked up)
Basigin: AAGFVQAPLSQQRWVGGSVELHCEAVGSPVPEIQWWFEGQGPNDTCSQLWDGARLDRVHIHATYHQHAASTISIDTLVEEDTGTYECRASNDPDRNHLTRAPRVKWVRAQAVVLVLEPGTVFTTVEDLGSKILLTCSLNDSATEVTGHRWLKGGVVLKEDALPGQKTEFKVDSDDQWGEYSCVFLPEPMGTANIQLHGPPRVKAVKSSEHINEGETAMLVCKSESVPPVTDWAWYKITDSEDKALMNGSESRFFVSSSQGRSELHIENLNMEADPGQYRCNGTSSKGSDQAIITLRVRSHLAALWPFLGIVAEVLVLVTIIFIYEKRRKPEDVLDDDDAGSAPLKSSGQHQNDKGKNVRQRNSS
Total (total peptides): 5 | Unique (unique peptides): 5 | Total (peptides) [2]: 2 | Unique (peptides) [2]: 2
